Assay results reported in publication doi:10.1101/2024.06.26.600760.
Results are given in words; binding and its absence hold for the method and conditions named. Binding seen in cells or lysates may run through a third protein. Some results given as binding are weak or reduced against the parent protein; the word gives no strength.

Amino acid sequences for entries named in this document (tags omitted). A change or cut given only in a name is not applied to a line headed by its entry.
UniProt Q13315: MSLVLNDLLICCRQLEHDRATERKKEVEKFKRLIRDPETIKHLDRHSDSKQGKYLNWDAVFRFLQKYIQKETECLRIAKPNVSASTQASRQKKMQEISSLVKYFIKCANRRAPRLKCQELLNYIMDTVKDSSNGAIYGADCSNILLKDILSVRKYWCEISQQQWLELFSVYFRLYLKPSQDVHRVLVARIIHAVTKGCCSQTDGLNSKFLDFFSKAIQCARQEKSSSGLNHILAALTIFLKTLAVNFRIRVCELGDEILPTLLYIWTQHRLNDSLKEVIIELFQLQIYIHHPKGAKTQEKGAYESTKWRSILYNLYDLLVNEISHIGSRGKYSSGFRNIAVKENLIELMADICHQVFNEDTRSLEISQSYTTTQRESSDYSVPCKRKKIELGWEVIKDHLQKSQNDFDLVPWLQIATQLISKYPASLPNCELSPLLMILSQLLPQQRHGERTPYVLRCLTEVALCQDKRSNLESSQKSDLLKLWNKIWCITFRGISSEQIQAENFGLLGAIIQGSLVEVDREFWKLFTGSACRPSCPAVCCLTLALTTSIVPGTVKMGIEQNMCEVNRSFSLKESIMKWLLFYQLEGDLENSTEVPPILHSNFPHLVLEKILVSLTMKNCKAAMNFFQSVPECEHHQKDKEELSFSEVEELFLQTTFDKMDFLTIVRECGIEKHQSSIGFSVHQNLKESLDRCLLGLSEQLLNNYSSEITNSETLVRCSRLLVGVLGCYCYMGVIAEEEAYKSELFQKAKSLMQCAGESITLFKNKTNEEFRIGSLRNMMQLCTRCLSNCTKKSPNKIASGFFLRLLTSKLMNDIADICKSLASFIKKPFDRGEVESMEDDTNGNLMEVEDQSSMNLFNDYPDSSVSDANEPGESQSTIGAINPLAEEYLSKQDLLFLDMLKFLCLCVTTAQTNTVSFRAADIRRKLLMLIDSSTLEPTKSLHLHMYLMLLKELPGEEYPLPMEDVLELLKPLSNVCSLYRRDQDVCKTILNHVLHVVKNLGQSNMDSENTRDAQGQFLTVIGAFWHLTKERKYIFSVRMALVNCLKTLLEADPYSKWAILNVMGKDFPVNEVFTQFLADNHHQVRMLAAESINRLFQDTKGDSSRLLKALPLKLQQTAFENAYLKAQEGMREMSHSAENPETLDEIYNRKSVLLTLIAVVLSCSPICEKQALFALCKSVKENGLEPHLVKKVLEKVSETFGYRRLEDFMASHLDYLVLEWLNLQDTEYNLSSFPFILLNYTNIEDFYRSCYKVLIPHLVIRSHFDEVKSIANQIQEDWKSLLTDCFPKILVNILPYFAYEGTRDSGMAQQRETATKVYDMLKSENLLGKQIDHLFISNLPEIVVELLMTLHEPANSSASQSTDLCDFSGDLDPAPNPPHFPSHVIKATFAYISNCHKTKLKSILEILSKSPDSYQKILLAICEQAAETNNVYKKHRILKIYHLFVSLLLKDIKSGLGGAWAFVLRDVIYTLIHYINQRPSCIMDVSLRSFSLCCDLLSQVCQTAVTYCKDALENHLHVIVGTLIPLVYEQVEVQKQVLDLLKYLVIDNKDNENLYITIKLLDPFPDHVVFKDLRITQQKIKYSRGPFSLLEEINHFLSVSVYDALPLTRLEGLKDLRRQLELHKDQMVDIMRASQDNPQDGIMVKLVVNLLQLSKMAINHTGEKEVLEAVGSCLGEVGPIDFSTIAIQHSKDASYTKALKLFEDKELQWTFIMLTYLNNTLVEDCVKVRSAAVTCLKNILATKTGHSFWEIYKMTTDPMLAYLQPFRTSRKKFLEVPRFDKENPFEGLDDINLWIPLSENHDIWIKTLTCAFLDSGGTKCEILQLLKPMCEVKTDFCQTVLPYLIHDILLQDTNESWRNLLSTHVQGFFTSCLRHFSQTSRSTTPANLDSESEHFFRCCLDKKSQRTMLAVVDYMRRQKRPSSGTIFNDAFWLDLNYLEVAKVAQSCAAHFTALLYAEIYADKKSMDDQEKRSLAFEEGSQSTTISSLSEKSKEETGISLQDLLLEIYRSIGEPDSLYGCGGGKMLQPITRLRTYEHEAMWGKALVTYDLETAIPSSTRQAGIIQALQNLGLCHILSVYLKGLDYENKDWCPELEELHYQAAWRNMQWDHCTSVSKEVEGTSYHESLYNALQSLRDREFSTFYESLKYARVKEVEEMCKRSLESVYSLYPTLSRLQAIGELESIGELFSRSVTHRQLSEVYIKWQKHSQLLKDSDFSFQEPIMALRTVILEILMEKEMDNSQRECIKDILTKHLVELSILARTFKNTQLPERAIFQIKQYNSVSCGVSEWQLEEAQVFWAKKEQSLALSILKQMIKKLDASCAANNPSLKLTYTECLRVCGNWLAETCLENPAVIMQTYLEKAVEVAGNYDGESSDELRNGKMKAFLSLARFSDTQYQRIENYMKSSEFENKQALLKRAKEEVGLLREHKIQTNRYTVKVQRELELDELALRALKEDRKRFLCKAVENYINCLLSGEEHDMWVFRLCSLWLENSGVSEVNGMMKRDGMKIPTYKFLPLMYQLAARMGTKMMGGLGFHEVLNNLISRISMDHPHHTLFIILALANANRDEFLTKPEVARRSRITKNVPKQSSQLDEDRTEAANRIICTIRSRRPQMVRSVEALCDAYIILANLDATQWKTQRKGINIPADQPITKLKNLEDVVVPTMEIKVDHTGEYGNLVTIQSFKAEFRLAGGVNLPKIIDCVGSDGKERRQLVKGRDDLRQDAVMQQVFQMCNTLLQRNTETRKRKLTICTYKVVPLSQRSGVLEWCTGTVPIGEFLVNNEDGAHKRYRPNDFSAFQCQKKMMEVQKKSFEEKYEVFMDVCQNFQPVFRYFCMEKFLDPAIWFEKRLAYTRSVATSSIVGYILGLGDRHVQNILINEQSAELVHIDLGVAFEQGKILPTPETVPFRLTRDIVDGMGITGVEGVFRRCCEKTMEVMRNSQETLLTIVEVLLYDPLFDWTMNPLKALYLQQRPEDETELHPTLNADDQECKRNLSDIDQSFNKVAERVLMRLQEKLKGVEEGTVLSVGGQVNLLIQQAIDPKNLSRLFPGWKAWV

Biological target: Ataxia Telangiectasia Mutated (ATM) (human (endogenous in SH-SY5Y)) (UniProt Q13315)
Assay: co-IP

B1: collapsin response mediator protein 5 (CRMP5) (protein, UniProt Q9BPU6 1-564)
chain: MLANSASVRILIKGGKVVNDDCTHEADVYIENGIIQQVGRELMIPGGAKVIDATGKLVIPGGIDTSTHFHQTFMNATCVDDFYHGTKAALVGGTTMIIGHVLPDKETSLVDAYEKCRGLADPKVCCDYALHVGITWWAPKVKAEMETLVREKGVNSFQMFMTYKDLYMLRDSELYQVLHACKDIGAIARVHAENGELVAEGAKEALDLGITGPEGIEISRPEELEAEATHRVITIANRTHCPIYLVNVSSISAGDVIAAAKMQGKVVLAETTTAHATLTGLHYYHQDWSHAAAYVTVPPLRLDTNTSTYLMSLLANDTLNIVASDHRPFTTKQKAMGKEDFTKIPHGVSGVQDRMSVIWERGVVGGKMDENRFVAVTSSNAAKLLNLYPRKGRIIPGADADVVVWDPEATKTISASTQVQGGDFNLYENMRCHGVPLVTISRGRVVYENGVFMCAEGTGKFCPLRSFPDTVYKKLVQREKTLKVRGVDRTPYLGDVAVVVHPGKKEMGTPLADTPTRPVTRHGGMRDLHESSFSLSGSQIDDHVPKRASARILAPPGGRSSGIW
binding: binds
